Reference: the supplement of paper PMC12889115
This is one part of the list. Values are raw readings; no control value is given beside them.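 Primary screen: polymyxin B was added at a level permeabilizing Salmonella outer membranes while sparing inner membranes. DMSO wells, both with and without polymyxin B, established maximum growth. Plate-to-plate variation meant each plate was ranked on its own, and the lowest-OD600 compounds were selected as hits.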

Test system: Salmonella enterica serovar Typhimurium SL1344
Assay: bacterial growth OD600 after 18 h with compound and polymyxin B; higher = more bacterial growth (less inhibition)
Settings: 50 µM, Mueller-Hinton broth

| SMILES | bacterial growth OD600 (polymyxin B 0.75 µg/mL) | bacterial growth OD600 (polymyxin B 1 µg/mL) |
| --- | --- | --- |
| COc1ccc(OCc2cc(C(=O)NC3CCC3)n[nH]2)c(Cl)c1 | 0.854 |  |
| O=C(CCC1CCN(C(=O)c2ccccn2)CC1)N1CCC(Cc2ccccc2)CC1 |  | 0.961 |
| COCCNC1CCN(c2cccc(NC(=O)CCCc3ccccc3)c2)CC1 | 0.84 |  |
| COc1ccccc1N1CCN(C2CCCN(C(=O)c3cn4ccsc4n3)C2)CC1 (stereo not given) |  | 1.18 |
| COc1cc(C(=O)NC2CC(=O)N(Cc3ccc(F)cc3)C2)ccc1C (stereo not given) |  | 0.957 |
| COc1ccc(CN2CCN(CCCn3cccn3)CC2CCO)c(C)c1C (stereo not given) |  | 0.939 |
| O=C(CC1CCCC1)NC1CCCc2nc(N3CCC(CO)CC3)ncc21 (stereo not given) | 0.907 |  |
| COCc1noc(-c2ccc(N(Cc3nccn3C)C(C)C)nc2)n1 | 0.853 |  |
| O=C(NCc1cccnc1)C1CCCN(C2CCN(CC3CCCC3)CC2)C1 (stereo not given) |  | 1.21 |
| COC(=O)c1ccc(CN2CCCC(C(=O)c3cccc(OC)c3)C2)cc1 (stereo not given) |  | 0.778 |
| O=C(CCCc1cccs1)NC1CC(=O)N(Cc2ccccc2Cl)C1 (stereo not given) |  | 0.86 |
| Cc1ccc(CNC2CC(=O)N(C3Cc4ccccc4C3)C2)o1 (stereo not given) |  | 1.06 |
| O=C(Cn1nnnc1CN1CCCCCC1)N1CCCCC1CCN1CCOCC1 (stereo not given) | 0.981 |  |
| Cn1nccc1C(=O)N1CCCC(CCc2ccccc2)C1 (stereo not given) | 0.772 |  |
| COc1cc([C@@H]2C[C@H]3CN(C4CCCC4)C(=O)[C@]34CCCN24)ccc1F |  | 1.11 |
| COc1cc(CN2CCNC(=O)C2CC(=O)N2CCCCCC2)cc(OC)c1 (stereo not given) | 0.793 |  |
| CCCn1ncc(CN2CCCC(C(=O)c3cc(C)c(OC)c(C)c3)C2)c1C (stereo not given) |  | 0.897 |
| CCC(C)C(=O)NCC1Cc2cc(-c3cc(OC)ccc3OC)cc(Cl)c2O1 (stereo not given) | 0.595 |  |
| COCCN1CCCC2(CCN(C(=O)c3cccc(Cl)c3)C2)C1=O (stereo not given) |  | 0.867 |
| Cc1cc(-c2nnc(CCC(=O)NCc3cccc(C(F)(F)F)c3)o2)no1 |  | 0.904 |
| CN(Cc1ccc2nccnc2c1)C(=O)CC1(c2cccc(F)c2)CC(=O)N(C2CCCC2)C1=O (stereo not given) | 0.181 |  |
| O=C(CCC1CCN(C(=O)C2CCCO2)CC1)N1CCC(Cc2ccccc2)CC1 (stereo not given) |  | 1.01 |
| c1ccc(Cc2noc(-c3ccc(NCCc4cnccn4)nc3)n2)cc1 | 0.691 |  |
| COc1ccc(C(=O)NC2CC2)c(OC2CCN(Cc3cccc(C)n3)CC2)c1 |  | 1.23 |
| CCOC(=O)C1CCCN(c2nncc(-c3cccc4ccccc34)n2)C1 (stereo not given) | 0.258 |  |
| CSc1ccc(CC2(CCC(=O)NC(C)c3cnn(-c4ccccc4)c3)CCC(=O)N2)cc1 (stereo not given) | 0.78 |  |
| C=C(C)CNC(=O)C1CCCN(C2CCN(C(=O)C3CC3)CC2)C1 (stereo not given) | 0.831 |  |
| COc1ccc(CN2CCOc3ccc(C(O)CCc4ccccc4)cc3C2)cc1OC (stereo not given) | 0.002 |  |
| COCC(=O)Nc1cc(C(=O)N2CCN(c3ccccn3)CC2)c2c(c1)nc(C1CCC1)n2C | 0.772 |  |
| COc1ccc(CNC2CCCCCC2)c(OCC(O)CN2CCN(C)CC2)c1 (stereo not given) |  | 1.15 |

An excerpt from above in order of molar mass, ascending.

| SMILES | bacterial growth OD600 (polymyxin B 0.75 µg/mL) | bacterial growth OD600 (polymyxin B 1 µg/mL) |
| --- | --- | --- |
| COc1ccc(OCc2cc(C(=O)NC3CCC3)n[nH]2)c(Cl)c1 | 0.854 |  |
| O=C(NCc1cccnc1)C1CCCN(C2CCN(CC3CCCC3)CC2)C1 (stereo not given) |  | 1.21 |
| COCC(=O)Nc1cc(C(=O)N2CCN(c3ccccn3)CC2)c2c(c1)nc(C1CCC1)n2C | 0.772 |  |
